Values of other authors, collected in patent US7772188B2, “Methods and compositions for the treatment of gastrointestinal disorders” (priority 2003, dated 2010).
Some of these results come from one statement about several compounds together. Some compounds share one range, which may span the group rather than tell each member.

The chains behind the UniProt entries cited, without tags or fusion partners. Where a name states a change or a piece, a line headed by the entry shows the natural chain unless it says otherwise. Residues count along the entry.
UniProt P25092, 24-1073: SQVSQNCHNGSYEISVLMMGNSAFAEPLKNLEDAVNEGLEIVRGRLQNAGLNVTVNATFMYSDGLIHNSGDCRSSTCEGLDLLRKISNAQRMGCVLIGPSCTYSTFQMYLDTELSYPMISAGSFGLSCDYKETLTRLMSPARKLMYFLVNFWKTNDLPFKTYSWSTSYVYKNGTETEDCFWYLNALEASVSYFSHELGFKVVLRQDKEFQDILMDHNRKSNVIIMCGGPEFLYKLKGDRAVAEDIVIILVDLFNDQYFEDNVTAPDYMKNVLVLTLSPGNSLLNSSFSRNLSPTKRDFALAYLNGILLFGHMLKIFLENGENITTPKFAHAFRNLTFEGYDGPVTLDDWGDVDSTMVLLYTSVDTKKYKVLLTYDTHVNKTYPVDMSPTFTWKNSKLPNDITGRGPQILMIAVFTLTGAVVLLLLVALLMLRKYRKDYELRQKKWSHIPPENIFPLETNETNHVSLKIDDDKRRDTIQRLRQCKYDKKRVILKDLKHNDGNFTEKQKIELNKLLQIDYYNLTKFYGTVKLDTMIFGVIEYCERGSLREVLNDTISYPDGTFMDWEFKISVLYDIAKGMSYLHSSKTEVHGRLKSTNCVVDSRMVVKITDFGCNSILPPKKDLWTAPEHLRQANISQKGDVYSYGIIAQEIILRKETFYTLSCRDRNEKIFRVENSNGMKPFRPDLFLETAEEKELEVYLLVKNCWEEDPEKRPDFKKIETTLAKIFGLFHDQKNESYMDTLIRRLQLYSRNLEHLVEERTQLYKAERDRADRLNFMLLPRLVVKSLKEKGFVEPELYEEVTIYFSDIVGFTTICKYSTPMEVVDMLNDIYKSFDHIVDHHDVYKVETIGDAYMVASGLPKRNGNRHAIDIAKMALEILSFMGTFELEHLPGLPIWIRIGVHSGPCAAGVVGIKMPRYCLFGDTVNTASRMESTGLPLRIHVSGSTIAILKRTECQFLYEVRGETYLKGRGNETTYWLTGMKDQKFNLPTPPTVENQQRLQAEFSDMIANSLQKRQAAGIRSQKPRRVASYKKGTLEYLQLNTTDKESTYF
UniProt Q02747: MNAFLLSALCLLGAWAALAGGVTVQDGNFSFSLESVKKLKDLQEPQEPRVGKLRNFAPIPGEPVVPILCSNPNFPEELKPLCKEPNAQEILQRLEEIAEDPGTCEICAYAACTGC
UniProt Q16661: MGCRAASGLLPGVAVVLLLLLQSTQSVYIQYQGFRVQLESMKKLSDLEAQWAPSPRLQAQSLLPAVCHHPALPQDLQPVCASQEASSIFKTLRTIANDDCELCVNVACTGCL

Biological target: GC-C receptor (Homo sapiens, UniProt P25092)
Conditions: GC-C receptor activation; reviewed in Gianella 1995; cited from earlier work

| Substance | potency relative to bacterially derived ST peptides (fold less potent) |
| --- | --- |
| guanylin: activates the GC-C receptor in humans (U.S. Pat. No. 5,969,097) (PGTCEICAYAACTGC; Guanylin; UniProt Q02747 101-115, looked up) | 10-100 fold |
| lymphoguanylin | 10-100 fold |
| uroguanylin: activates the GC-C receptor in humans (U.S. Pat. No. 5,140,102) (NDDCELCVNVACTGCL; Uroguanylin; UniProt Q16661 97-112, looked up) | 10-100 fold |
